According to patent publication US20060292076A1, “Antimicrobial mediated ozone generation” (priority 2002, published 2006):

Assay: Oxidation of indigo carmine 1 and ^18O incorporation into cyclic α-ketoamide 2 by different reactive oxygen species
Details: H2^18O PB

In the case of `O=[O+][O-]` [Clone O3, ozone], the “^18O incorporation into 2” value is reported as “yes”.
